Here are results for seven compounds from the supplement of paper PMC12873370.

The subject of assay [1] is MEPP (mouse ovarian epithelium Trp53/Pten KO). Description: cell viability relative to untreated (fraction); higher = less growth inhibition. The following applies: 5 µM; 3 days.
The test system of assay [2] is PREPP (mouse prostate epithelium Trp53/Pten KO). Described as above. The conditions noted are these: 5 µM; 3 days.

Molecules are shown by their SMILES. Some of the results follow. Most values come without repeats; read them as rough.

As to `O=C1O[C@H]([C@@H](O)CO)C([O-])=C1O.[Na+]`, the cell viability worked out at 1.02 in assay [1] and 1.05 in assay [2].

Regarding `NCCCC(=O)O`, the cell viability in assay [1] was 1.01; in assay [2] it was 1.22.

Regarding `C=C1CC[C@H]2C(=C)CC[C@H]3C(=C)C(=O)O[C@@H]3[C@@H]12`, the results for the cell viability in assay [1] and in assay [2] were 1.14 and 0.913, respectively.

For `N=C(NCCCCCCNC(=N)NC(=N)Nc1ccc(Cl)cc1)NC(=N)Nc1ccc(Cl)cc1`, the cell viability in assay [1] was determined as 0.909; in assay [2], 0.384.

On to `Cc1c2oc3c(C)ccc(C(=O)N[C@@H]4C(=O)N[C@H](C(C)C)C(=O)N5CCC[C@H]5C(=O)N(C)CC(=O)N(C)[C@@H](C(C)C)C(=O)O[C@@H]4C)c3nc-2c(C(=O)N[C@@H]2C(=O)N[C@H](C(C)C)C(=O)N3CCC[C@H]3C(=O)N(C)CC(=O)N(C)[C@@H](C(C)C)C(=O)O[C@@H]2C)c(N)c1=O`, for which the results for the cell viability in assay [1] and in assay [2] were 0.547 and 0.33, respectively.

Take `COc1ccc(CC(=O)O)cc1O`: the cell viability is 0.879 in assay [1] and 1.33 in assay [2].

`CC1(C)C2CCC1(C)C(O)C2` (centres undefined): the cell viability in assay [1] stood at 1.16; in assay [2], 0.859.
